Values of other authors, collected in US20100278896A1, “SOLID COMPOSITIONS” (UCL BUSINESS PLC, priority 2007, published 2010).
At least one structure is not confirmed: it was looked up by name or label, or the drawing left a doubt.

Tested on: Human Tenon's fibroblasts (HTF)
Details: dose-dependent; Daniels et al., 2003; cited from earlier work

CNC(=O)[C@H](Cc1ccccc1)NC(=O)[C@H](CC(C)C)[C@H](CSc1cccs1)C(=O)NO [BB-94]
contraction of HTF populated collagen gels: inhibition of the contraction of the gels
